Our source for the binding values is article PMC4764573.

Sequences of proteins named here, by UniProt entry; tags and fusion partners are left off. A change or cut given only in a name is not applied to a line headed by its entry.
UniProt B7ZR20: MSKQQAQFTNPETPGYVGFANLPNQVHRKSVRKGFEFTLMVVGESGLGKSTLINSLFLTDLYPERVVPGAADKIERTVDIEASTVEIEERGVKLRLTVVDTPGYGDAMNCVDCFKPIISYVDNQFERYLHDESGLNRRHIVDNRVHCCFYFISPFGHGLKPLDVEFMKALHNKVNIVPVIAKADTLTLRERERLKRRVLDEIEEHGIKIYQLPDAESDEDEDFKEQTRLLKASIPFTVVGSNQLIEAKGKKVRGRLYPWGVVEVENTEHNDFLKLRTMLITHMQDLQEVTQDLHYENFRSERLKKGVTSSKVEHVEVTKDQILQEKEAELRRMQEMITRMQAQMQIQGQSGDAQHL
UniProt Q6P5F9: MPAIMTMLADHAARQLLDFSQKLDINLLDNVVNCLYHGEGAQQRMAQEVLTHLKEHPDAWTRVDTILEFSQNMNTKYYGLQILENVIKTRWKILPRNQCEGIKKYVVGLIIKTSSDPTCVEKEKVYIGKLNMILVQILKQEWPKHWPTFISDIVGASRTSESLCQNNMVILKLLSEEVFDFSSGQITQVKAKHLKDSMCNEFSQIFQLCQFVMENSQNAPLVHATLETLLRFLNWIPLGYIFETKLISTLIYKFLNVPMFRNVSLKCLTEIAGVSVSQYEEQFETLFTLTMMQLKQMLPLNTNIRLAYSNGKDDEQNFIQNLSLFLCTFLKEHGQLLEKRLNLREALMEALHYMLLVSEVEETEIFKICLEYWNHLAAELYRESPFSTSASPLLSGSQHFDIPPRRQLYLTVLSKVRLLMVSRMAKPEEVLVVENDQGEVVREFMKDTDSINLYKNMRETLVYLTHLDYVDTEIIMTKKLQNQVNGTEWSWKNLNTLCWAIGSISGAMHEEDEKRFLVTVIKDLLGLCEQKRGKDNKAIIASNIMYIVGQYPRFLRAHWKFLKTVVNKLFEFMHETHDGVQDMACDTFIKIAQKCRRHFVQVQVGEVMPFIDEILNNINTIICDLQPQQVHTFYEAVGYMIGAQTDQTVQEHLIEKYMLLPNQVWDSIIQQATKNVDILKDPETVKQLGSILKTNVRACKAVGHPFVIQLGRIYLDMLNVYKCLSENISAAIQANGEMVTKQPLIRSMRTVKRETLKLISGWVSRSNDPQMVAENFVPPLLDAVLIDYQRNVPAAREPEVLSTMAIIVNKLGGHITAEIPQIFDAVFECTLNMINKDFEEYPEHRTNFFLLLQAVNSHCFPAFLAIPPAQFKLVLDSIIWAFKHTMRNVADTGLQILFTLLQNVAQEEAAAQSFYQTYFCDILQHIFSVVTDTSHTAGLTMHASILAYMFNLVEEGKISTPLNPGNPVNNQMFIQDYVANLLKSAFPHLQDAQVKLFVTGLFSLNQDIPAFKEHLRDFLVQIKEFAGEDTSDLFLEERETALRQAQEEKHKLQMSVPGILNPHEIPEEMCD

No constants are given. Whether binding was seen depends on the method and setting. Binding calls can cover weak binding; strength is not graded here.

The assay concerns the target H14-ZZ-Sumo tagged Septin-2 (Xenopus) (UniProt B7ZR20). In words: pull-down; 250 pmoles His14-ZZ-bdSUMO tagged candidate on 20 μl anti-ZZ beads; 300 pmoles mmCRM1 with or without 1500 pmoles RanGTP (hsRanQ69L^5-180) in 500 µl; 3 hr at 4°C; elution by bdSENP1 protease; SDS-PAGE and Coomassie-staining; both purified.

As to “mmCRM1 (mouse CRM1), in solution in the direct binding assay (from UniProt Q6P5F9 1-1071)”, the binding result was “binds”.
